{
  "sequences": {"note": "Amino acid sequences for entries named in this document (tags omitted). A change or cut given only in a name is not applied to a line headed by its entry.", "UniProt P11473": "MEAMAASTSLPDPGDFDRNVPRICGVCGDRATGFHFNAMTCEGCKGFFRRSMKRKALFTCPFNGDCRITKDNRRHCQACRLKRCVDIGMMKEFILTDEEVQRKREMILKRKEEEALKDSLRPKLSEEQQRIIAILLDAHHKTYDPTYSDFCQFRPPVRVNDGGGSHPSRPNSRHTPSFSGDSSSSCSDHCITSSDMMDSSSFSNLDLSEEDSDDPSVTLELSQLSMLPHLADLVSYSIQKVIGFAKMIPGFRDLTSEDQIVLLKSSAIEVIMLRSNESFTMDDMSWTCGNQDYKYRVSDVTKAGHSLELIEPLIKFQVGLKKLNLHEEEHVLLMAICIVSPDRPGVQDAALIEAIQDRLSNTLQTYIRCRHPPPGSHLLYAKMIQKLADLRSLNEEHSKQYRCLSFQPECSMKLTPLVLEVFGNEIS"},
  "source": "PubChem BioAssay AID504847",
  "about": "(National Center for Advancing Translational Sciences (NCATS), 2011)",
  "note": "Several values for one entry are separate records, joined by “and”; a condition that tells them apart may be missing. Identical values can stand only once. Among all 400,000 compounds or so, about 3,700 (0.93%) were called active. The shares of active, inactive and inconclusive entries below differ from those in the screen. The call rests on the fitted dose curve; in most records, active means well fitted inhibition curve with a large enough effect; inconclusive means small, poorly fitted or top-dose-only effect, or another doubt; inactive means no such curve, though single readings can be large or run the other way. A potency beside an inconclusive call is a rough fit, not a confirmed value. On the % scale 0 is the no-effect control and ±100 the full control effect; potency means the concentration at half of the fitted maximal effect.",
  "data": [
    {"target": "Vitamin D3 receptor (Homo sapiens) (UniProt P11473)", "assay": "Inhibitors of the vitamin D receptor (VDR): qHTS", "conditions": "VDR-SRC2-3 peptide fluorescence polarization, 2 h; max response, negative = inhibition: stronger effect = lower value", "summary_of_the_method": "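FP read-out; VDR + SRC2-3 coactivator peptide; 23 nl compound by pintool; 2 h RT incubation; reagents held at 4 deg C, protected from light.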", "values": [
      {"smiles": "CN(C)C(=O)CCc1ccc2c3c([nH]c2c1)[C@]1(CCc2ccccc2)[C@@H](C(=O)N2CCCCC2)C[C@H](CC(=O)NC(C)(C)C)C(=O)N1CC3", "max response, negative = inhibition": "inactive: -13.5%"},
      {"smiles": "O=C(c1cc2cc(Cl)ccc2o1)N1CCCC1", "max response, negative = inhibition": "inactive: 19.1%"},
      {"smiles": "Cc1ccc(NC2=C(CC(=O)O)C(c3ccc(F)cc3)N(c3ccc(C)cc3)C2=O)cc1", "note": "(stereo not given)", "Potency": "inconclusive: 89.1 µM [inhibitor, partial curve, poor fit]"},
      {"smiles": "CCN(CC)CCOC(=O)c1ccc(NC(=O)c2nn(C)c3c2COc2ccccc2-3)cc1", "max response, negative = inhibition": "inactive: 8.94%"},
      {"smiles": "C/C(=N/NC(=O)c1cc(O)c(O)c(O)c1)c1ccc([N+](=O)[O-])cc1", "max response, negative = inhibition": "inactive: -10.5%"},
      {"smiles": "O=C(C=Cc1ccco1)c1cc(Cl)ccc1O", "Potency": "inconclusive: 39.8 µM [inhibitor, partial curve]"},
      {"smiles": "Cc1cccc(-n2cnc(C(=O)N3CCN(C)CC3)c2)n1", "max response, negative = inhibition": "inactive: -2.39%"},
      {"smiles": "COc1ccc2cc1Oc1ccc(cc1)CC1c3c(cc4c(c3Oc3cc5c(cc3OC)CCN(C)C5C2)OCO4)CCN1C", "note": "(stereo not given)", "max response, negative = inhibition": "inactive: 9.87%"},
      {"smiles": "BrC(=C\\c1ccccc1)/C=N/n1cnnc1", "max response, negative = inhibition": "inactive: -4.79%"},
      {"smiles": "OCCN1CCN(C(=S)c2ccc(-c3ccccc3)cc2)CC1", "Potency": "inconclusive: 79.4 µM [inhibitor, partial curve, poor fit]"},
      {"smiles": "O=C(N/N=C/C(Br)=C\\c1ccccc1)c1n[nH]c2c1CCC2", "Potency": "inconclusive: 56.2 µM [inhibitor, partial curve, poor fit]"},
      {"smiles": "COc1ccc2[nH]cc(CCNc3cc(-c4ccc5c(c4)OCO5)ncn3)c2c1", "Potency": "inconclusive: 89.1 µM [inhibitor, single point]"},
      {"smiles": "Cc1ccc(/C=C/C(=O)N2CC(C)CC(C)C2)o1", "note": "(stereo not given)", "Potency": "inconclusive: 56.2 µM [inhibitor, partial curve, poor fit]"},
      {"smiles": "CCOc1ccc(OCC)c(NS(=O)(=O)c2ccc3c(c2)CCCN3C(C)=O)c1", "max response, negative = inhibition": "inactive: -1.17%"},
      {"smiles": "CCC12CCCN3CCc4c(n(c5ccccc45)C(O)(C(=O)OC)C1)C32", "note": "(stereo not given)", "Potency": "inconclusive: 89.1 µM [inhibitor, single point]"},
      {"smiles": "Cc1ccc(-n2c(=S)[nH]c3c(oc4ccccc43)c2=O)cc1C", "Potency": "inconclusive: 89.1 µM [inhibitor, partial curve, poor fit]"},
      {"smiles": "Cc1ccc[n+](CC(=O)c2ccc(NC(=O)c3ccccc3)cc2)c1", "max response, negative = inhibition": "inactive: -4.44%"},
      {"smiles": "COc1ccc(/C=N/Nc2cc(=O)n(C)c(=O)n2C)cc1OC", "Potency": "inconclusive: 89.1 µM [inhibitor, single point]"},
      {"smiles": "CC(C)C12NC(=O)NC(=O)N1CCS2", "note": "(stereo not given)", "Potency": "inconclusive: 89.1 µM [inhibitor, single point]"},
      {"smiles": "CC(=O)Nc1ccc(/C=C/C(=O)c2ccc(-n3nncc3-c3ccccc3)cc2)cc1", "Potency": "inconclusive: 7.94 µM [inhibitor, full curve, poor fit]"},
      {"smiles": "CC(=O)Nc1ccc(S(=O)(=O)NC2=C(N3CCN(c4ccc(F)cc4)CC3)C(=O)c3ccccc3C2=O)cc1", "Potency": "inconclusive: 89.1 µM [inhibitor, single point]"},
      {"smiles": "COc1cccc(-n2c(=O)c3c4c(sc3n(Cc3ccccc3C#N)c2=O)CCCC4)c1", "max response, negative = inhibition": "inactive: -2.87%"},
      {"smiles": "CCOC(=O)C1=C(C)NC(C)=C(C(=O)OCC)C1", "max response, negative = inhibition": "inactive: -5.02% and inactive: 11.7%"},
      {"smiles": "CC(C)C(CCNCc1ccccn1)c1ccc(Cl)cc1", "note": "(stereo not given)", "Potency": "inconclusive: 35.5 µM [inhibitor, partial curve, poor fit]"},
      {"smiles": "CCCCOc1ccc(-c2nc(=S)[nH][nH]2)cc1", "Potency": "inconclusive: 89.1 µM [inhibitor, single point]"},
      {"smiles": "O=C(c1csnn1)N1CCC2(CC1)CCN(c1ccccn1)CC2", "Potency": "inconclusive: 89.1 µM [inhibitor, single point]"},
      {"smiles": "COC(=O)/C=C1/SC(=NC(=O)c2ccc(Cl)cc2)NC1=O", "Potency": "inconclusive: 79.4 µM [inhibitor, partial curve, poor fit]"},
      {"smiles": "Cc1ccc(NC(=O)Cn2nc(C(F)(F)F)c3c2CCC3)cc1C", "Potency": "inconclusive: 50.1 µM [inhibitor, partial curve, poor fit]"},
      {"smiles": "COc1ccc(C2/C=C\\CN(C(=O)Nc3ccc(C(F)(F)F)cc3)CC(=O)N2Cc2ccc(F)cc2)cc1", "note": "(stereo not given)", "Potency": "inconclusive: 89.1 µM [inhibitor, single point]"},
      {"smiles": "COc1ccc(NC(=O)COc2cccc3c2OC(C)(C)C3)cc1OC", "max response, negative = inhibition": "inactive: 19.3%"},
      {"smiles": "O=C1OCc2ccc(NC(=O)c3ccccc3C(=O)O)cc21", "max response, negative = inhibition": "inactive: 10.3%"},
      {"smiles": "COc1ccc(-c2nsc(SCC(=O)Nc3cc(C)on3)n2)cc1", "Potency": "inconclusive: 89.1 µM [inhibitor, single point]"},
      {"smiles": "Cc1ccc(CNC(=S)Nc2ccc(C)c([N+](=O)[O-])c2)cc1", "Potency": "inconclusive: 89.1 µM [inhibitor, single point]"},
      {"smiles": "COc1ccc(Br)cc1CN(C)CC(=O)Nc1cccc(S(N)(=O)=O)c1", "max response, negative = inhibition": "inactive: 33.1%"},
      {"smiles": "COC(=O)C1=C(C(=O)OC)C(c2cc(Br)ccc2O)c2sc(=O)[nH]c2S1", "note": "(stereo not given)", "Potency": "inconclusive: 89.1 µM [inhibitor, single point]"},
      {"smiles": "Cc1ccc(Oc2nc3c(C)cccn3c(=O)c2/C=C(\\C#N)C(N)=O)cc1", "Potency": "inconclusive: 89.1 µM [inhibitor, single point]"},
      {"smiles": "Cc1[nH]n(-c2ccccc2)c(=O)c1C(C[N+](=O)[O-])c1ccc(Br)cc1", "note": "(stereo not given)", "Potency": "inconclusive: 50.1 µM [inhibitor, partial curve, poor fit]"},
      {"smiles": "CC1CC=CC2C1C(=O)N(Cc1ccccc1)C2c1ccoc1", "note": "(stereo not given)", "Potency": "inconclusive: 56.2 µM [inhibitor, partial curve, poor fit]"},
      {"smiles": "c1csc(-c2nn3c(C4COc5ccccc5O4)nnc3s2)c1", "note": "(stereo not given)", "Potency": "inconclusive: 79.4 µM [inhibitor, partial curve]"},
      {"smiles": "CSc1ccccc1C(=O)Nc1cc2c(cc1C(=O)O)OCCCO2", "max response, negative = inhibition": "inactive: -17.7%"},
      {"smiles": "COc1cc(/C=N/NC(=S)NC2CC3CC2C2C=CCC32)ccc1O", "note": "(stereo not given)", "max response, negative = inhibition": "inactive: 3.07%"},
      {"smiles": "CCS(=O)(=O)C1=NSC2=NC(=O)/C(=C\\c3ccc(OS(=O)(=O)c4ccccc4)cc3)C(=N)N21", "Potency": "inconclusive: 56.2 µM [inhibitor, partial curve, poor fit]"},
      {"smiles": "Cc1c(C(=O)N/N=C/C(C)C)[nH]c2ccc([N+](=O)[O-])cc12", "max response, negative = inhibition": "inactive: 3.23%"},
      {"smiles": "O=C1NC(=S)S/C1=C/c1ccc(N2CCOCC2)o1", "Potency": "inconclusive: 56.2 µM [inhibitor, partial curve, poor fit]"},
      {"smiles": "O=C(c1ccco1)N1CCC2(CC1)CN(c1ccccc1)C2", "Potency": "inconclusive: 89.1 µM [inhibitor, single point]"},
      {"smiles": "O=C(c1cc([N+](=O)[O-])ccc1N1CCCCC1)N1CCCCC1", "Potency": "inconclusive: 89.1 µM [inhibitor, single point]"},
      {"smiles": "CCOC(=O)C1(CCOc2ccccc2)CCN(Cc2ccc(O)c(OCC)c2)CC1", "max response, negative = inhibition": "inactive: -8.3%"},
      {"smiles": "COC1[C@@H](OC)C[C@H](C)[C@@H](OC)C2=CC(=O)C=C(NC(=O)/C(C)=C/C=C\\[C@H](OC)[C@@H](OC(N)=O)/C(C)=C/[C@@H]1C)C2=O", "note": "(stereo not given in full)", "Potency": "active: 79.4 µM"},
      {"smiles": "Cc1ccc(/C=[N+](\\[O-])c2ccc(N(C)C)cc2)c2nsnc12", "Potency": "inconclusive: 14.1 µM [inhibitor, full curve, poor fit]"},
      {"smiles": "Cc1c(C(=O)Oc2ccc(-c3cnc4ccccc4n3)cc2)cccc1[N+](=O)[O-]", "Potency": "inconclusive: 17.8 µM [inhibitor, partial curve, poor fit]"},
      {"smiles": "CCc1ccc(NC(=O)Cn2nc(C(F)(F)F)c3c2CCC3)cc1", "max response, negative = inhibition": "inactive: -9.03%"},
      {"smiles": "CCN(CC)c1ccc(NC(=O)CN(C)Cc2cccs2)cc1", "Potency": "inconclusive: 79.4 µM [inhibitor, partial curve]"},
      {"smiles": "NCCCC(N)(C(=O)O)C(F)F", "note": "(stereo not given)", "max response, negative = inhibition": "inactive: -1.89% and inactive: -11.3% and inactive: -3.43%"},
      {"smiles": "COCCCNC(NC(=O)c1ccc(Br)cc1)C(Cl)(Cl)Cl", "note": "(stereo not given)", "Potency": "inconclusive: 50.1 µM [inhibitor, full curve, poor fit]"},
      {"smiles": "CCCCCCCCCCCC1=C(O)C(=O)C=C(O)C1=O", "Potency": "inconclusive: 3.16 µM [inhibitor, full curve, poor fit] and inconclusive: 89.1 µM [inhibitor, partial curve, poor fit]"},
      {"smiles": "CN(C)CC1CC/C(=C\\c2ccc(O)cc2)C1=O", "note": "(stereo not given)", "Potency": "active: 22.4 µM"},
      {"smiles": "CCN(CC(=O)Nc1ccccc1C(F)(F)F)C(=O)c1ccc(N2CCCC2=O)cc1", "Potency": "inconclusive: 100 µM [inhibitor, partial curve, poor fit]"},
      {"smiles": "CNC(=S)N(CCc1c(C)[nH]c2ccc(Cl)cc12)Cc1cccnc1", "Potency": "inconclusive: 20 µM [inhibitor, partial curve, poor fit]"},
      {"smiles": "O=C(OCc1cccc(C(F)(F)F)c1)c1cc([N+](=O)[O-])ccc1N1CCOCC1", "Potency": "inconclusive: 89.1 µM [inhibitor, single point]"},
      {"smiles": "O=C(NN1C(=O)CSC1=S)c1cccnc1", "max response, negative = inhibition": "inactive: -15.6%"},
      {"smiles": "O=S(=O)(NC(=S)c1ccccc1)c1ccccc1", "max response, negative = inhibition": "inactive: -28.3%"},
      {"smiles": "CCOC(=O)Cc1csc(N/N=C\\c2cccc(Br)c2)n1", "Potency": "inconclusive: 56.2 µM [inhibitor, partial curve, poor fit]"},
      {"smiles": "NC(=O)NC1NC(=O)NC1=O", "note": "(stereo not given)", "Potency": "inconclusive: 89.1 µM [inhibitor, single point]"},
      {"smiles": "Cc1ccc2nc(-c3ccc(C)c(NC(=O)Cc4ccccc4)c3)oc2c1", "max response, negative = inhibition": "inactive: -21.8%"},
      {"smiles": "CCOc1cc(/C=N/Nc2nc(N3CCCC3)nc(N3CCCC3)n2)ccc1O", "max response, negative = inhibition": "inactive: 11%"}
    ]}
  ]
}
